In article PMC7504051, “Ilimaquinone Induces the Apoptotic Cell Death of Cancer Cells by Reducing Pyruvate Dehydrogenase Kinase 1 Activity” (International Journal of Molecular Sciences, 2020) one finds binding data, which are given here for one molecule.

Amino acid sequences for entries named in this document (tags omitted). Residues count along the entry.
UniProt Q15118, residues 29-436: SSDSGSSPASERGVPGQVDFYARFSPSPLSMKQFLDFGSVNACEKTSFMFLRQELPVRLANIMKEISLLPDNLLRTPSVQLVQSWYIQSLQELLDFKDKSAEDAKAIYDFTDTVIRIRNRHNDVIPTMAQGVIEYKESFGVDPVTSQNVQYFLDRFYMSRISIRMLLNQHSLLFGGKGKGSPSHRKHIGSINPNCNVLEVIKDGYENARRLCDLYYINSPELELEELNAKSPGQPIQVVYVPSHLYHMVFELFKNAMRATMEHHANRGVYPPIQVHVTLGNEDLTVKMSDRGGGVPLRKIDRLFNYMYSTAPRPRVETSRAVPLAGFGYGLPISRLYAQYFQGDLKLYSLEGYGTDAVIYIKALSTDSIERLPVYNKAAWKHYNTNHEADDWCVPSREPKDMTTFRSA

The target in this assay is GST-PDK1 (pyruvate dehydrogenase kinase 1) (UniProt Q15118). Put plainly: pull-down; GST-PDK1 from transfected HEK293T lysate held on Glutathione Sepharose 4B beads and washed; HEK293T whole-cell lysates containing the PDH complex added with or without 50 μM IQ; Western blotting; only the target purified. (In western blotting, separated proteins are transferred to a membrane and probed.)

Results are given in words; binding and its absence hold for the method and conditions named. In cells and extracts the contact can be indirect. Some binding calls cover weakened binding; strength is not graded here.

B1: PDH-E2 subunit (dihydrolipoamide acetyltransferase, the E2 subunit of the pyruvate dehydrogenase complex) (protein, UniProt P10515 87-647)
chain: SLPPHQKVPLPSLSPTMQAGTIARWEKKEGDKINEGDLIAEVETDKATVGFESLEECYMAKILVAEGTRDVPIGAIICITVGKPEDIEAFKNYTLDSSAAPTPQAAPAPTPAATASPPTPSAQAPGSSYPPHMQVLLPALSPTMTMGTVQRWEKKVGEKLSEGDLLAEIETDKATIGFEVQEEGYLAKILVPEGTRDVPLGTPLCIIVEKEADISAFADYRPTEVTDLKPQVPPPTPPPVAAVPPTPQPLAPTPSAPCPATPAGPKGRVFVSPLAKKLAVEKGIDLTQVKGTGPDGRITKKDIDSFVPSKVAPAPAAVVPPTGPGMAPVPTGVFTDIPISNIRRVIAQRLMQSKQTIPHYYLSIDVNMGEVLLVRKELNKILEGRSKISVNDFIIKASALACLKVPEANSSWMDTVIRQNHVVDVSVAVSTPAGLITPIVFNAHIKGVETIANDVVSLATKAREGKLQPHEFQGGTFTISNLGMFGIKNFSAIINPPQACILAIGASEDKLVPADNEKGFDVASMMSVTLSCDHRVVDGAVGAQWLAEFRKYLEKPITMLL
On to B1, for which the binding entry is on record as “binds”.
